The values that follow come from PubChem BioAssay AID2685 (National Center for Advancing Translational Sciences (NCATS), 2010).

Structures are written as SMILES. Some of the results follow. Further columns of the screen follow, without active or inactive calls. Most of these compounds were active or inconclusive in the main read-out, so they are no random draw. The note in brackets gives the kind of curve behind each potency; many fits are weak.

By AC50 is commonly meant the midpoint of the concentration-response curve, whichever way the signal moves. High values mean activity only at high concentration, low ones activity at low concentration.

The nature of the assay: qHTS Assay for Lipid Storage Modulators in Drosophila S3 Cells.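 For cell number change: cells counted by Cell Tracker Red CMTPX staining in the red channel.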 The settings on record: BODIPY lipid droplet fluorescence, 18-24 h; for cell number change: measured here: cell count max response, cells fed with added oleic acid. The gist of the method:
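Laser-scanning cytometry quantifies lipid droplet accumulation (500–530 nm total intensity; droplet/cell object ratio) in oleic acid-fed (400 uM added) Drosophila S3 cells treated with a concentration series. 20 uM Triacsin C defined 100% inhibition.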
A general note: Quantitative high-throughput screening tests each substance at several concentrations.

[1] abbreviates: measured here: lipid fluorescence (Fed channel) AC50, cells fed with added oleic acid.
Setting [2] is: measured here: cell number channel AC50, cells fed with added oleic acid.

For `Cc1c(N(C)C(=O)C2CCCN2S(=O)(=O)c2ccccc2)c(=O)n(-c2ccccc2)n1C` (centres undefined), the cell number change turned out to be 1.33%. The AC50 under setting [1] is 4.11 µM [falling, partial curve, poor fit].

Take `Cn1cccc1/C=N/NC(=O)c1sc2ccccc2c1Cl`: the cell number change was -1.04%.

Consider `O=C(c1ccc2c(c1)OCO2)N1CCN(c2ccc(C(F)(F)F)cn2)CC1`, for which the cell number change worked out at 89.9%. Moreover, under setting [2], the AC50 was 16.4 µM [rising, partial curve]. The AC50 under setting [1] is 14.6 µM [rising, partial curve].

In the case of `Cc1ccc(S(=O)(=O)c2nc(-c3ccco3)oc2N2CCC(C)CC2)cc1`, the cell number change is -15%.

For the molecule `COc1ccc(C(=O)N/N=C(\C)c2cccc(NC(=O)c3ccc(F)cc3)c2)c(OC)c1`, the cell number change was 3.4%. In addition, the AC50 under setting [2] was 6.51 µM [rising, single point].

Take `CCOC(=O)C1(CC)NC(c2ccc(OC)c(OC)c2)C2C(=O)N(c3cccc(C(C)=O)c3)C(=O)C21` (centres undefined): the cell number change is -6.88%. Besides, the AC50 under setting [1] was 0.103 µM [rising, full curve, poor fit].

`CCCCC(=O)Nc1ccccc1N1CCN(c2ccc(F)cc2)CC1`: the cell number change is 0.525%. In addition, under setting [1], the AC50 was 29.1 µM [falling, single point].

As for `Cn1c(SCC(=O)NCc2ccc3c(c2)OCO3)ncc(C(=O)Nc2ccc(F)cc2)c1=O`, the cell number change was 23%.

As for `CCOc1ccc(OCC)c(NC(=O)C2CCCN(S(=O)(=O)c3c(C)noc3C)C2)c1` (centres undefined), the cell number change came to 19.6%.

On to `O=C1OCC(Cn2c3ccccc3c3ccccc32)O1` (centres undefined), for which the cell number change is 0.749%.

For `Cc1ccc(C2NC(=O)CCC2[N+](=O)[O-])cc1` (centres undefined), the cell number change came to 1.09%. The AC50 under setting [1] was 0.058 µM [falling, full curve, poor fit].

On to `CSc1nc2ccc(NS(=O)(=O)c3ccc4c(c3)OCCO4)cc2s1`, for which the cell number change came out at 32.2%. Further, the AC50 under setting [2] was 5.8 µM [rising, full curve, poor fit]. For the same molecule, the AC50 under setting [1] is 23.1 µM [rising, partial curve].

As for `CCOCC(=O)Nc1cc(C(=O)OC)ccc1C(=O)OC`, the cell number change was -11.4%. The AC50 under setting [1] was 0.651 µM [rising, single point].

Take `COc1ccc(NC2CCCN(C(=O)c3cn(C)c4ccccc34)C2)cc1` (centres undefined): the cell number change stood at 16.8%. Besides, the AC50 under setting [1] was 25.9 µM [rising, partial curve].

In the case of `O=[N+]([O-])c1cc(C2Nc3cccc4cccc(c34)N2)ccc1Cl`, the cell number change is -43.6%. In addition, under setting [2], the AC50 was 11.6 µM [falling, partial curve]. The AC50 under setting [1] is 6.51 µM [falling, full curve, poor fit].

Turning to `CC(=O)Nc1ccc(C(=O)CN2C(=O)NC3(CCOc4ccccc43)C2=O)c(F)c1` (centres undefined), the cell number change amounted to 8.33%. The AC50 under setting [1] is 1.84 µM [rising, partial curve, poor fit].

On to `N#Cc1cnn2c(-c3ccccc3)ccnc12`, for which the cell number change is 2.42%. The AC50 under setting [1] is 29.1 µM [rising, single point].

Turning to `Cc1csc(SCC(=O)NC(=O)NCc2ccccc2)n1`, the cell number change turned out to be 4.53%. Besides, the AC50 under setting [1] was 6.51 µM [rising, single point].

On to `CCC(=O)Nc1ccc(C(=O)OCc2ccccc2)cc1`, for which the cell number change was 27.8%. The AC50 under setting [2] was 5.17 µM [rising, full curve, poor fit]. Moreover, under setting [1], the AC50 was 4.61 µM [rising, single point].

Take `COc1cccc(C(=O)Nc2ccc(N3CCN(C(=O)c4ccco4)CC3)cc2)c1`: the cell number change was -4.62%. Also, under setting [1], the AC50 was 6.51 µM [rising, single point].

As for `COc1ccc(C(CNC(=O)c2cccc(S(=O)(=O)Nc3ccccc3Cl)c2)N2CCOCC2)cc1` (centres undefined), the cell number change was 50%. Also, the AC50 under setting [2] is 2.06 µM [rising, partial curve].

On to `O=C(c1ccc2c(=O)n(Cc3ccc(Cl)cc3)c(=S)[nH]c2c1)N1CCOCC1`, for which the cell number change amounted to 13%.

For the molecule `Cc1ccc(S(=O)(=O)N2CCN(C(=O)c3ccccc3)CC2)c(C)c1NS(C)(=O)=O`, the cell number change was -19.2%. For the same molecule, the AC50 under setting [1] is 18.4 µM [falling, single point].

For `CCCCOCCCNC(=S)Nc1ccc(S(=O)(=O)N2CCOCC2)cc1`, the cell number change was -21.7%. The AC50 under setting [1] is 0.206 µM [rising, full curve, poor fit].

On to `COc1ccc(NC2CCCN(C(=O)CCn3cccn3)C2)cc1` (centres undefined), for which the cell number change is 12.6%. Besides, the AC50 under setting [1] is 6.51 µM [falling, single point].

Consider `CCOc1ccc(NC(=S)N2CCCN(Cc3cccc(Cl)c3)C2)cc1`, for which the AC50 under setting [2] is 0.00461 µM [falling, full curve, poor fit] and the AC50 under setting [1] is 0.00461 µM [falling, full curve, poor fit].

For the molecule `Cc1ccc(OCCCCN2CCCCC2)c(Br)c1`, the cell number change was determined as 19.8%.

In the case of `COc1ccc(OC)c(NC(=O)c2ccc(-c3csc(C)n3)cc2)c1`, the cell number change is -5.87%. Moreover, the AC50 under setting [1] was 16.4 µM [falling, single point].

Regarding `COc1ccc(OCCn2cc(/C=N/NC(=O)c3ccncc3)c3ccccc32)cc1`, the cell number change is -0.706%. Under setting [1], the AC50 is 1.3 µM [rising, full curve].

Take `CCOC(=O)COc1cccc2c(=O)n(CC(=O)N3CCCc4ccccc43)ccc12`: the cell number change came to 6.45%. Under setting [2], the AC50 is 0.731 µM [falling, full curve, poor fit]. Further, under setting [1], the AC50 was 1.03 µM [falling, full curve].

Consider `CC1CCCN(c2sc(S(C)(=O)=O)nc2S(=O)(=O)c2ccc(Cl)cc2)C1` (centres undefined), for which the cell number change was -53.6%. Besides, the AC50 under setting [2] was 29.1 µM [falling, single point]. Also, the AC50 under setting [1] is 29.1 µM [falling, single point].

Take `Clc1c(CSc2nc3ccccc3o2)nc2ccccn12`: the cell number change is -7.79%. Under setting [2], the AC50 was 0.731 µM [rising, full curve, poor fit]. Further, the AC50 under setting [1] is 2.59 µM [rising, partial curve].

With `COC(=O)c1c(NC(=O)C2=COCCO2)sc(C)c1C`, the cell number change was found to be 36.5%. The AC50 under setting [2] is 29.1 µM [rising, single point].

Turning to `CCC(C(=O)N1CCCCCC1)n1nc(C)n2c(cc3occc32)c1=O` (centres undefined), the cell number change amounted to 7.25%.

As for `COc1ccc(CCC(C)N2CCc3ccccc3C2)cc1` (centres undefined), the cell number change was 12.7%. For the same molecule, the AC50 under setting [1] is 3.66 µM [rising, full curve].

As to `Cc1cccn2c(=O)c3cc(C(=O)NC4CCCCCC4)sc3nc12`, the cell number change is -8.82%. The AC50 under setting [1] is 0.291 µM [falling, full curve, poor fit].

With `COc1ccc(-c2ccc(SCC(=O)N3CC(=O)Nc4ccccc43)nn2)cc1`, the cell number change came out at 20.4%. Moreover, the AC50 under setting [1] is 29.1 µM [falling, single point].

As for `CSCCC(NC(=O)c1ccco1)C(=O)Nc1cc(C)ccn1` (centres undefined), the half-maximal activity concentration (AC50) under setting [1] is 0.0731 µM [falling, full curve, poor fit].

As to `COCCCNc1oc(/C=C/c2ccccc2)nc1C#N`, the AC50 under setting [2] was 0.231 µM [rising, full curve, poor fit] and the AC50 under setting [1] was 29.1 µM [rising, single point].

For the molecule `Cc1c(C)c2cc(Cl)c(O)c(CN3CCN(C)CC3)c2oc1=O`, the cell number change came out at 5.49%. In addition, under setting [1], the AC50 was 0.651 µM [falling, single point].

Take `C=CCn1cc(-c2cccc(C(F)(F)F)c2)cc(C#N)c1=O`: the cell number change is -7.56%.

As to `N/C(CC(=O)NCCOc1ccccc1)=N\O`, the cell number change is 8.79%. In addition, the AC50 under setting [1] is 6.51 µM [falling, single point].

As to `COc1ccc(CNC(=O)C2CCNCC2)cc1`, the cell number change was -26.2%.

`N#Cc1ccccc1Cn1c(=O)oc2ccccc21`: the cell number change was -12.4%. Besides, under setting [1], the AC50 is 0.00517 µM [falling, full curve, poor fit].

With `CC(=O)c1cccc(S(=O)(=O)N2CCN(CCOc3ccccc3)CC2)c1`, the cell number change worked out at 1.03%. Further, the AC50 under setting [1] is 1.03 µM [falling, partial curve].

With `Cc1ccc(N(Cc2ccco2)C(=O)c2ccc(N3CCCCC3)c([N+](=O)[O-])c2)cc1`, the cell number change was -18%. For the same molecule, under setting [1], the AC50 is 29.1 µM [falling, single point].

For `S=c1[nH]nc(/C=C/c2ccccc2)o1`, the cell number change was 9.18%. The AC50 under setting [2] was 0.651 µM [falling, partial curve]. For the same molecule, the AC50 under setting [1] was 0.58 µM [falling, partial curve].

As to `O=C(NNc1nc(-c2ccccc2)cs1)c1cccs1`, the cell number change was -14.8%. For the same molecule, the AC50 under setting [1] is 0.206 µM [falling, single point].

Regarding `COc1ccc(C(O)c2nccn2C)cc1` (centres undefined), the cell number change was -45.9%. Besides, the AC50 under setting [2] is 13 µM [falling, partial curve]. Under setting [1], the AC50 is 3.66 µM [falling, full curve].

With `Cc1cc(C(=O)OC(C)C(=O)NC2CCCCC2)c(C)o1` (centres undefined), the cell number change was -10.7%. The AC50 under setting [1] is 0.00461 µM [falling, full curve, poor fit].

Regarding `COc1ccc(-c2[nH]ncc2-c2cnc(C)s2)c(O)c1`, the cell number change was -21.7%. The AC50 under setting [2] was 0.0231 µM [falling, full curve, poor fit]. The AC50 under setting [1] was 0.00517 µM [falling, full curve].

With `CC(=O)N1N=C(c2ccc(C)o2)CC1c1cccc(F)c1` (centres undefined), the cell number change came out at 2.83%. The concentration at half-maximal activity (AC50) under setting [2] was 2.31 µM [falling, partial curve]. Further, the AC50 under setting [1] was 2.31 µM [falling, partial curve].

On to `CCCCc1cc(=O)oc2cc(C)cc(OCC(=O)NCc3ccccn3)c12`, for which the cell number change was -4.44%. The AC50 under setting [1] was 7.31 µM [falling, partial curve].

As to `CN(C(=O)C1CCC(=O)N(C2CC2)C1)C1CCCCC1` (centres undefined), the cell number change was determined as 19.6%. For the same molecule, the AC50 under setting [1] was 0.651 µM [rising, single point].

With `COc1ccc(OC)c(CCNC(=O)CS(=O)(=O)Cc2nc(-c3ccccc3Cl)oc2C)c1`, the cell number change came to 19.9%. Moreover, the AC50 under setting [1] is 1.16 µM [rising, single point].

Regarding `CC1CN(CCCCSc2ccccc2)CC(C)O1` (centres undefined), the cell number change is 23.3%. Also, the AC50 under setting [1] was 18.4 µM [rising, single point].

With `COC(=O)c1ccc2c(c1)N(C)C(=O)CS2`, the cell number change is 13.2%. In addition, the AC50 under setting [1] is 6.51 µM [falling, single point].

Take `C=CCn1c2c(c(=O)[nH]c1=S)CN(C(C)c1ccccc1)CN2` (centres undefined): the cell number change came out at 25.8%.

Turning to `COc1ccc(CCC(=O)NNC(=O)Nc2cc(Cl)ccc2C)cc1`, the cell number change is -6.44%. The AC50 under setting [1] was 20.6 µM [rising, partial curve].

For the molecule `CC(C)OC(=O)C1C2C=CC3(CN(Cc4cccs4)C(=O)C13)O2` (centres undefined), the AC50 reads like this: under setting [2], 5.17 µM [falling, single point]; under setting [1], 0.259 µM [falling, partial curve].
